Experimental data reported in article PMC6830309, “Characterizing CDK8/19 Inhibitors through a NFκB-Dependent Cell-Based Assay” (Cells, 2019).

Tests used:
[1] = test system: TNFα-induced NFκB reporter activity in WT 293 cells (CDK8/19 inhibition); test: NFκB-dependent luciferase reporter cell-based assay in WT 293 cells; conditions: Homo sapiens, HEK293, 3 h, 293-WT-NFKB-LUC#8; 10 ng/mL TNFα 3 h
Procedure: (§1) The lentiviral construct pHAGE-NFkB-TA-LUC-UBC-dTomato was generated by Darrell Kotton […] Parental WT 293 cells or CDK8/19 dKO 293 cells were transduced with the lentivirus and dTomato-positive cells were sorted out using FACS Aria III. Single-cell clones were expanded and tested for luciferase reporter activities under TNFα- and/or senexin B-treated and untreated conditions with Bright-Glo Luciferase Assay System (Promega, Madison, WI, USA).
(§2) On day 1, cells were seeded in polyethyleneimine-coated 96-well plates at the density of 5 × 10^4 cells per well. […] Chemiluminescence intensity of each well was measured with ChemiDoc Touch™ (Bio-Rad) and quantified using ImageLab software (Bio-Rad). The raw data were then further processed with GraphPad Prism 7.0 (GraphPad Software, San Diego, CA, USA) for curve-fitting and IC50 calculation.

[2] = test system: TNFα-induced NFκB reporter activity in CDK8/19 dKO 293 cells; test: NFκB-dependent luciferase reporter cell-based assay in CDK8/19 dKO 293 cells; conditions: Homo sapiens, HEK293; 293-dKO-NFKB-LUC#2; 10 ng/mL TNFα 3 h
Procedure: as §1, §2

Structure (SMILES): CCc1cnn2c(NCc3ccc[n+]([O-])c3)cc(N3CCCC[C@H]3CCO)nc12 [Dinaciclib]
- IC50 [1]: 4.4 nM
- IC50 [2]: 3.6 nM
